Measured values reported in paper PMC4627809.
These are yes or no findings as the source states them, for the method shown. For part of these data: In cells and extracts the contact can be indirect. Some results given as binding are weak or reduced against the parent protein; the word gives no strength. For part of these data: Tags and fused reporters may be left off the sequences shown.

Key:
[1] = target: FLAG-HSP90α wild type (human) (UniProt P07900); assay: co-IP; HEK293 co-transfected with FLAG-HSP90 construct and client for 18 h; lysis in TGNET (50 mM Tris HCl pH 7.5, 5% glycerol, 100 mM NaCl, 2 mM EDTA, 0.5% Triton X-100); 700 μg lysate on anti-FLAG beads 2 h at 4°C; western blot for the client
[2] = target: FLAG-HSP90α D93A (human) (UniProt P07900); assay: as above
[3] = target: FLAG-HSP90β E42A (human) (UniProt P08238); assay: as above
[4] = target: FLAG-HSP90α E47A (human) (UniProt P07900); assay: as above
[5] = target: FLAG-HSP90β wild type (human) (UniProt P08238); assay: as above
[6] = target: FLAG-HSP90α R400A (human) (UniProt P07900); assay: as above
[7] = target: FLAG-HSP90β R392A (human) (UniProt P08238); assay: as above
[8] = target: FLAG-HSP90α IL218/20AA (human) (UniProt P07900); assay: as above
[9] = target: FLAG-HSP90β IL213/5AA (human) (UniProt P08238); assay: as above
[10] = target: FLAG-HSP90β D88A (human) (UniProt P08238); assay: as above
[11] = target: FLAG-HSP90β wild type (human) (UniProt P08238); assay: LUMIER; HEK293 in 96-well plates co-transfected with NanoLuc-client and 3XFLAG-HSP90α or β; TGNET lysate on anti-FLAG antibody-coated plate 2 h at 4°C; NanoLuc read-out divided by anti-FLAG-HRP read-out = relative interaction strength
[12] = target: FLAG-HSP90β wild type (human), P08238; assay: as above; conditions: remark: other sources report otherwise

Measured: binding

B1: HA-RHOBTB2 (protein, UniProt Q9BYZ6 1-727)
chain: MDSDMDYERPNVETIKCVVVGDNAVGKTRLICARACNATLTQYQLLATHVPTVWAIDQYRVCQEVLERSRDVVDDVSVSLRLWDTFGDHHKDRRFAYGRSDVVVLCFSIANPNSLHHVKTMWYPEIKHFCPRAPVILVGCQLDLRYADLEAVNRARRPLARPIKPNEILPPEKGREVAKELGIPYYETSVVAQFGIKDVFDNAIRAALISRRHLQFWKSHLRNVQRPLLQAPFLPPKPPPPIIVVPDPPSSSEECPAHLLEDPLCADVILVLQERVRIFAHKIYLSTSSSKFYDLFLMDLSEGELGGPSEPGGTHPEDHQGHSDQHHHHHHHHHGRDFLLRAASFDVCESVDEAGGSGPAGLRASTSDGILRGNGTGYLPGRGRVLSSWSRAFVSIQEEMAEDPLTYKSRLMVVVKMDSSIQPGPFRAVLKYLYTGELDENERDLMHIAHIAELLEVFDLRMMVANILNNEAFMNQEITKAFHVRRTNRVKECLAKGTFSDVTFILDDGTISAHKPLLISSCDWMAAMFGGPFVESSTREVVFPYTSKSCMRAVLEYLYTGMFTSSPDLDDMKLIILANRLCLPHLVALTEQYTVTGLMEATQMMVDIDGDVLVFLELAQFHCAYQLADWCLHHICTNYNNVCRKFPRDMKAMSPENQEYFEKHRWPPVWYLKEEDHYQRARKEREKEDYLHLKRQPKRRWLFWNSPSSPSSSAASSSSPSSSSAVV
not listed: [11] | [12]
binds: all other assays above

B2: NL-RHOBTB2/DBC2 (protein, UniProt Q9BYZ6 1-727)
chain: MDSDMDYERPNVETIKCVVVGDNAVGKTRLICARACNATLTQYQLLATHVPTVWAIDQYRVCQEVLERSRDVVDDVSVSLRLWDTFGDHHKDRRFAYGRSDVVVLCFSIANPNSLHHVKTMWYPEIKHFCPRAPVILVGCQLDLRYADLEAVNRARRPLARPIKPNEILPPEKGREVAKELGIPYYETSVVAQFGIKDVFDNAIRAALISRRHLQFWKSHLRNVQRPLLQAPFLPPKPPPPIIVVPDPPSSSEECPAHLLEDPLCADVILVLQERVRIFAHKIYLSTSSSKFYDLFLMDLSEGELGGPSEPGGTHPEDHQGHSDQHHHHHHHHHGRDFLLRAASFDVCESVDEAGGSGPAGLRASTSDGILRGNGTGYLPGRGRVLSSWSRAFVSIQEEMAEDPLTYKSRLMVVVKMDSSIQPGPFRAVLKYLYTGELDENERDLMHIAHIAELLEVFDLRMMVANILNNEAFMNQEITKAFHVRRTNRVKECLAKGTFSDVTFILDDGTISAHKPLLISSCDWMAAMFGGPFVESSTREVVFPYTSKSCMRAVLEYLYTGMFTSSPDLDDMKLIILANRLCLPHLVALTEQYTVTGLMEATQMMVDIDGDVLVFLELAQFHCAYQLADWCLHHICTNYNNVCRKFPRDMKAMSPENQEYFEKHRWPPVWYLKEEDHYQRARKEREKEDYLHLKRQPKRRWLFWNSPSSPSSSAASSSSPSSSSAVV
binds: [11]

B3: NL-HSF1, Q00613 1-529 (protein)
chain: MDLPVGPGAAGPSNVPAFLTKLWTLVSDPDTDALICWSPSGNSFHVFDQGQFAKEVLPKYFKHNNMASFVRQLNMYGFRKVVHIEQGGLVKPERDDTEFQHPCFLRGQEQLLENIKRKVTSVSTLKSEDIKIRQDSVTKLLTDVQLMKGKQECMDSKLLAMKHENEALWREVASLRQKHAQQQKVVNKLIQFLISLVQSNRILGVKRKIPLMLNDSGSAHSMPKYSRQFSLEHVHGSGPYSAPSPAYSSSSLYAPDAVASSGPIISDITELAPASPMASPGGSIDERPLSSSPLVRVKEEPPSPPQSPRVEEASPGRPSSVDTLLSPTALIDSILRESEPAPASVTALTDARGHTDTEGRPPSPPPTSTPEKCLSVACLDKNELSDHLDAMDSNLDNLQTMLSSHGFSVDTSALLDLFSPSVTVPDMSLPDLDSSLASIQELLSPQEPPRPPEAENSSPDSGKQLVHYTAQPLFLLDPGSVDTGSNDLPVLFELGEGSYFSEGDGFAEDPTISLLTGSEPPKAKDPTVS
binds: [12]
